The record followed here is paper PMC12099056, “Targeting the Exonic Circular OGT RNA/O-GlcNAc Transferase/Forkhead Box C1 Axis Inhibits Asparagine- and Alanine-Mediated Ferroptosis Repression in Neuroblastoma Progression” (Research, 2025).

In experiment [1] the target is T1, forkhead box C1 (human (endogenous in IMR-32 and SK-N-BE(2))) (UniProt Q12948).
T1 sequence: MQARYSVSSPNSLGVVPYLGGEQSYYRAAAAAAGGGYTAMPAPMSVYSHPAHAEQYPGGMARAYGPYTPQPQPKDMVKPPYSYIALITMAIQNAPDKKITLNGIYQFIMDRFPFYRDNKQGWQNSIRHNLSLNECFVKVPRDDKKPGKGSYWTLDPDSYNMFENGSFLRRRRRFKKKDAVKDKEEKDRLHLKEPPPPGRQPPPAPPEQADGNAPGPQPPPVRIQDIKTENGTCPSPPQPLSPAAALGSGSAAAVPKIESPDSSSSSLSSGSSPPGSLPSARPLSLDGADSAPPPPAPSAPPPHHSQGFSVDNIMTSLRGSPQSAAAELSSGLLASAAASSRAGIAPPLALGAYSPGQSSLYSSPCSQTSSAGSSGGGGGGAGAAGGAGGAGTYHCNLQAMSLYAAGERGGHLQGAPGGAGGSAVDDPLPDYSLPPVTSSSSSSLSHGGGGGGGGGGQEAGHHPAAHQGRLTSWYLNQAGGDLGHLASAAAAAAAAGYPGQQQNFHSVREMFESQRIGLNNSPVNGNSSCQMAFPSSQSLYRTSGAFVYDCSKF
In words: co-IP; IMR-32 cells stably transfected with empty vector (mock), ecircOGT or ecircOGT Mut, co-IP and Western blot. In general terms: Immunoblotting shows a protein as a band on a membrane.

Experiment [2] has as its target T1, forkhead box C1 (human (endogenous in IMR-32 and SK-N-BE(2))). In words: co-IP; SK-N-BE(2) cells treated with solvent or miconazole nitrate (MN), co-IP and Western blot.
Experiment [3] has the same target. In words: co-IP; validating co-IP and Western blot of endogenous proteins in IMR-32 cells.
The target is the same in experiment [4]. Nature of the experiment: co-IP; endogenous proteins; cells treated with control DMEM/F12 or EBSS for 6 h (text: SK-N-BE(2); legend: SH-SY5Y).
The target in experiment [5] is T2, FOXC1 BiFC construct (human) (UniProt Q12948).
T2 sequence: T1 sequence
In words: split reporter; BiFC; pBiFC-VC155 and pBiFC-VN173 constructs co-transfected for 24 h, confocal microscope.

In experiment [6] the target is T3, Flag-tagged FOXC1 (wild-type) (human) (UniProt Q12948).
T3 sequence: T1 sequence
In words: co-IP; SH-SY5Y cells transfected with HA-tagged OGT and Flag-tagged FOXC1 (wild-type, truncations or mutants), co-IP and Western blot.

These are yes or no findings as the source states them, for the method shown. Binding seen in cells or lysates may run through a third protein. Some binding calls cover weakened binding; strength is not graded here. For some assays here: Tags and fused reporters may be left off the sequences shown.

B1: O-GlcNAc transferase (enzyme, UniProt O15294 1-1046)
chain: MASSVGNVADSTEPTKRMLSFQGLAELAHREYQAGDFEAAERHCMQLWRQEPDNTGVLLLLSSIHFQCRRLDRSAHFSTLAIKQNPLLAEAYSNLGNVYKERGQLQEAIEHYRHALRLKPDFIDGYINLAAALVAAGDMEGAVQAYVSALQYNPDLYCVRSDLGNLLKALGRLEEAKACYLKAIETQPNFAVAWSNLGCVFNAQGEIWLAIHHFEKAVTLDPNFLDAYINLGNVLKEARIFDRAVAAYLRALSLSPNHAVVHGNLACVYYEQGLIDLAIDTYRRAIELQPHFPDAYCNLANALKEKGSVAEAEDCYNTALRLCPTHADSLNNLANIKREQGNIEEAVRLYRKALEVFPEFAAAHSNLASVLQQQGKLQEALMHYKEAIRISPTFADAYSNMGNTLKEMQDVQGALQCYTRAIQINPAFADAHSNLASIHKDSGNIPEAIASYRTALKLKPDFPDAYCNLAHCLQIVCDWTDYDERMKKLVSIVADQLEKNRLPSVHPHHSMLYPLSHGFRKAIAERHGNLCLDKINVLHKPPYEHPKDLKLSDGRLRVGYVSSDFGNHPTSHLMQSIPGMHNPDKFEVFCYALSPDDGTNFRVKVMAEANHFIDLSQIPCNGKAADRIHQDGIHILVNMNGYTKGARNELFALRPAPIQAMWLGYPGTSGALFMDYIITDQETSPAEVAEQYSEKLAYMPHTFFIGDHANMFPHLKKKAVIDFKSNGHIYDNRIVLNGIDLKAFLDSLPDVKIVKMKCPDGGDNADSSNTALNMPVIPMNTIAEAVIEMINRGQIQITINGFSISNGLATTQINNKAATGEEVPRTIIVTTRSQYGLPEDAIVYCNFNQLYKIDPSTLQMWANILKRVPNSVLWLLRFPAVGEPNIQQYAQNMGLPQNRIIFSPVAPKEEHVRRGQLADVCLDTPLCNGHTTGMDVLWAGTPMVTMPGETLASRVAASQLTCLGCLELIAKNRQEYEDIAVKLGTDLEYLKKVRGKVWKQRISSPLFNTKQYTMELERLYLQMWEHYAAGNKPDHMIKPVEVTESA
For B1, the binding result in experiment [1], in experiment [2], in experiment [3] and in experiment [4] was “binds” throughout.

B2: OGT BiFC construct (enzyme, UniProt O15294 1-1046)
chain: B1 chain
Consider B2, for which the binding entry in experiment [5] is “binds”.

B3: HA-tagged OGT (wild-type) (enzyme, UniProt O15294 1-1046)
chain: B1 chain
As for B3, the binding result in experiment [6] was “binds”.

B4: OGT-570aa encoded by exonic circular OGT RNA (ecircOGT), from stably transfected ecircOGT (protein, UniProt O15294 382-948)
chain: MHYKEAIRISPTFADAYSNMGNTLKEMQDVQGALQCYTRAIQINPAFADAHSNLASIHKDSGNIPEAIASYRTALKLKPDFPDAYCNLAHCLQIVCDWTDYDERMKKLVSIVADQLEKNRLPSVHPHHSMLYPLSHGFRKAIAERHGNLCLDKINVLHKPPYEHPKDLKLSDGRLRVGYVSSDFGNHPTSHLMQSIPGMHNPDKFEVFCYALSPDDGTNFRVKVMAEANHFIDLSQIPCNGKAADRIHQDGIHILVNMNGYTKGARNELFALRPAPIQAMWLGYPGTSGALFMDYIITDQETSPAEVAEQYSEKLAYMPHTFFIGDHANMFPHLKKKAVIDFKSNGHIYDNRIVLNGIDLKAFLDSLPDVKIVKMKCPDGGDNADSSNTALNMPVIPMNTIAEAVIEMINRGQIQITINGFSISNGLATTQINNKAATGEEVPRTIIVTTRSQYGLPEDAIVYCNFNQLYKIDPSTLQMWANILKRVPNSVLWLLRFPAVGEPNIQQYAQNMGLPQNRIIFSPVAPKEEHVRRGQLADVCLDTPLCNGHTTGMDVLWAGTPMVTMPGCHP
With B4, the binding result in experiment [1] is “binds”.

B5: OGT-570aa, endogenous (protein, UniProt O15294 382-948)
chain: B4 chain
As to B5, the binding entry in experiment [2] is on record as “binds”.
